Experimental data taken from publication PMC12413082.
No constants are given. Whether binding was seen depends on the method and setting. Binding seen in cells or lysates may run through a third protein.

Molecular target: T1, Gephyrin, endogenous (mouse (endogenous in P1 mouse cortex)) (UniProt Q8BUV3)
T1 sequence: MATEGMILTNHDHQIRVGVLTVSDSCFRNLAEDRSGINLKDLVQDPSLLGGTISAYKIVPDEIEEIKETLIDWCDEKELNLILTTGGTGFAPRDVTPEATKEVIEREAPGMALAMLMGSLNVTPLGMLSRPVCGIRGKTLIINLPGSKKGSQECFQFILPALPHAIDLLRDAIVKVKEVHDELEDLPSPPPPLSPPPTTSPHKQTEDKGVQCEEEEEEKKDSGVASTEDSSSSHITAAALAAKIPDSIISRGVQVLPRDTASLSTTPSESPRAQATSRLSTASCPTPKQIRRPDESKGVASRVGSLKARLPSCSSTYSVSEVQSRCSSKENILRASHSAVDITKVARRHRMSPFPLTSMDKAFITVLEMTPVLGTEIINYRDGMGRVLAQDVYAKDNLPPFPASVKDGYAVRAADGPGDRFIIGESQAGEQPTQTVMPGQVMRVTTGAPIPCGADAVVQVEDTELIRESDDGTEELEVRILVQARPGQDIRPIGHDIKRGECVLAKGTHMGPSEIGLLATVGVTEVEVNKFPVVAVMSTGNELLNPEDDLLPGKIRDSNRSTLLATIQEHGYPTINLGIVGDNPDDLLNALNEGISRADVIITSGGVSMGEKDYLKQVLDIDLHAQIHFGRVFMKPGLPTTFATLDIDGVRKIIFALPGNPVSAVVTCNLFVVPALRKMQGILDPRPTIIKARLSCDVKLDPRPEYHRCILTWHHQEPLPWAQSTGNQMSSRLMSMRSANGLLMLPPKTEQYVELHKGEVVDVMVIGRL
Test: co-IP; endogenous co-IP from cortical protein homogenate of P1 Kif15+/+ mouse; primary antibody overnight at 4 C, agarose beads overnight at 4 C, Western blot

binding: no binding
B1: KIF15 (Kinesin-12), endogenous (protein, UniProt Q6P9L6 1-1387)
chain: MAPGCKSELRNVTNSHSNQPSNEGDAIKVFVRIRPAEEGARSADGEQSFCLSVLSQTTLRLHSNPDPKTFVFDYVAGMDTTQESVFSTVAKSIVESCMSGYNGTIFAYGQTGSGKTFTMMGPSDSDNFSHNLRGIIPRSFEYLFSLIDREKEKAGAGKSFLCKCSFIEVYNEQIYDLLDSASVGLYLREHIKKGVFVVGAVEQAVTSAAETYQVLSRGWRNRRVASTSMNRESSRSHAVFTITIESMEKSSETVNIRTSLLNLVDLAGSERQKDTHAEGMRLKEAGNINRSLSCLGQVITALVDVGNGKQRHICYRDSKLTFLLRDSLGGNAKTAIIANVHPGSRCFGETLSTLNFAQRAKLIKNKAVVNEDTQGNVSQLQAEVKRLKEQLSQFTSGQITPESLLARDKEKTNYIEYFLEAMLFFKKSEQEKKSLIEKITQLEDLTLKKEKFIQSNKMIVKFREDQIMRLERLHKEGRGSFLPEEQDRLLSELRDEVQTLREHVEHHPRLAKYAMENHSLREENRRLKLLAPVKRAHEIDAQSIARLEKAFAEVSSTETNDKGLQGFSPKALKESSFFTNTEKLKAQLLQIQTELNNSKQEYEEFKELTRKKQLELESELQSLQKANLNLENLLEATKVCKRQEVSQLNKLHAETLKIITTPTKAYQLCSRLVPKSSPEVGSFGFLCTESSSRLDNDILNEPVPPEMSEQALEAVSEELRTVQEQLSVLQVKLDEEERKNLKLQQNVDKLEHHSTQMQELFSSERSDWTKQQQEHVTQLSDLEKQLQDAQTKNEFLKCEVHDLRIVLNSADKELSLVKLEYSTFKENHEKELSQLSERHVQVQLQLDNARLENEKLLESQACLQDSYDNLQEVMKFEIDQLSKNLQNCKQENETLKSDLHNLVELFEAEKERNNKLSLQFEEDKENSSKEILKVLETVRQEKQKEMAKCEKQMAKIQKLEESLLATENVISSLEKSRESDKELVTNLMNQIQELRISIGEKSETIATLKQELQDINCKYNASLADKEESKELIRRQEVDILELKETLRLRILSEDIERDMLCEDLAHATEQLNMLTEASKKHSGLLQSAQEELTRKEALIQELQHKLNQEKEEVEQKKNEFSLKMRQLEHVMGSATEYPQSPKTPPHFQAHLAKLLETQEQEIEDGRASKTSLQHLVTKLNEDREVKNAEILRMKDQLCEMENLRLESQQLREKNWLLQRQLDDVKRQQESGDQSHPDSQQLKNEHEEIIKERLAKNKLIEEMLKMKTNLEEVQSALHSKEKACHRMSEEIERTRTLESRAFQEKEQLRSKLEEMYEERERTFLEMEMLKKQLEFLAEENGKLVGHQNLHQKIQYVVRLKKENIRLTEETEKLRAENLFLKEKKKEF
